Measurements as given in article PMC7372886.
No constants are given. Whether binding was seen depends on the method and setting. Binding seen in cells or lysates may run through a third protein. A yes stands for co-enrichment or nearness to the bait. Other partners may have been found.

By UniProt entry, the sequences of proteins in these tests, tags left out.
UniProt P49327: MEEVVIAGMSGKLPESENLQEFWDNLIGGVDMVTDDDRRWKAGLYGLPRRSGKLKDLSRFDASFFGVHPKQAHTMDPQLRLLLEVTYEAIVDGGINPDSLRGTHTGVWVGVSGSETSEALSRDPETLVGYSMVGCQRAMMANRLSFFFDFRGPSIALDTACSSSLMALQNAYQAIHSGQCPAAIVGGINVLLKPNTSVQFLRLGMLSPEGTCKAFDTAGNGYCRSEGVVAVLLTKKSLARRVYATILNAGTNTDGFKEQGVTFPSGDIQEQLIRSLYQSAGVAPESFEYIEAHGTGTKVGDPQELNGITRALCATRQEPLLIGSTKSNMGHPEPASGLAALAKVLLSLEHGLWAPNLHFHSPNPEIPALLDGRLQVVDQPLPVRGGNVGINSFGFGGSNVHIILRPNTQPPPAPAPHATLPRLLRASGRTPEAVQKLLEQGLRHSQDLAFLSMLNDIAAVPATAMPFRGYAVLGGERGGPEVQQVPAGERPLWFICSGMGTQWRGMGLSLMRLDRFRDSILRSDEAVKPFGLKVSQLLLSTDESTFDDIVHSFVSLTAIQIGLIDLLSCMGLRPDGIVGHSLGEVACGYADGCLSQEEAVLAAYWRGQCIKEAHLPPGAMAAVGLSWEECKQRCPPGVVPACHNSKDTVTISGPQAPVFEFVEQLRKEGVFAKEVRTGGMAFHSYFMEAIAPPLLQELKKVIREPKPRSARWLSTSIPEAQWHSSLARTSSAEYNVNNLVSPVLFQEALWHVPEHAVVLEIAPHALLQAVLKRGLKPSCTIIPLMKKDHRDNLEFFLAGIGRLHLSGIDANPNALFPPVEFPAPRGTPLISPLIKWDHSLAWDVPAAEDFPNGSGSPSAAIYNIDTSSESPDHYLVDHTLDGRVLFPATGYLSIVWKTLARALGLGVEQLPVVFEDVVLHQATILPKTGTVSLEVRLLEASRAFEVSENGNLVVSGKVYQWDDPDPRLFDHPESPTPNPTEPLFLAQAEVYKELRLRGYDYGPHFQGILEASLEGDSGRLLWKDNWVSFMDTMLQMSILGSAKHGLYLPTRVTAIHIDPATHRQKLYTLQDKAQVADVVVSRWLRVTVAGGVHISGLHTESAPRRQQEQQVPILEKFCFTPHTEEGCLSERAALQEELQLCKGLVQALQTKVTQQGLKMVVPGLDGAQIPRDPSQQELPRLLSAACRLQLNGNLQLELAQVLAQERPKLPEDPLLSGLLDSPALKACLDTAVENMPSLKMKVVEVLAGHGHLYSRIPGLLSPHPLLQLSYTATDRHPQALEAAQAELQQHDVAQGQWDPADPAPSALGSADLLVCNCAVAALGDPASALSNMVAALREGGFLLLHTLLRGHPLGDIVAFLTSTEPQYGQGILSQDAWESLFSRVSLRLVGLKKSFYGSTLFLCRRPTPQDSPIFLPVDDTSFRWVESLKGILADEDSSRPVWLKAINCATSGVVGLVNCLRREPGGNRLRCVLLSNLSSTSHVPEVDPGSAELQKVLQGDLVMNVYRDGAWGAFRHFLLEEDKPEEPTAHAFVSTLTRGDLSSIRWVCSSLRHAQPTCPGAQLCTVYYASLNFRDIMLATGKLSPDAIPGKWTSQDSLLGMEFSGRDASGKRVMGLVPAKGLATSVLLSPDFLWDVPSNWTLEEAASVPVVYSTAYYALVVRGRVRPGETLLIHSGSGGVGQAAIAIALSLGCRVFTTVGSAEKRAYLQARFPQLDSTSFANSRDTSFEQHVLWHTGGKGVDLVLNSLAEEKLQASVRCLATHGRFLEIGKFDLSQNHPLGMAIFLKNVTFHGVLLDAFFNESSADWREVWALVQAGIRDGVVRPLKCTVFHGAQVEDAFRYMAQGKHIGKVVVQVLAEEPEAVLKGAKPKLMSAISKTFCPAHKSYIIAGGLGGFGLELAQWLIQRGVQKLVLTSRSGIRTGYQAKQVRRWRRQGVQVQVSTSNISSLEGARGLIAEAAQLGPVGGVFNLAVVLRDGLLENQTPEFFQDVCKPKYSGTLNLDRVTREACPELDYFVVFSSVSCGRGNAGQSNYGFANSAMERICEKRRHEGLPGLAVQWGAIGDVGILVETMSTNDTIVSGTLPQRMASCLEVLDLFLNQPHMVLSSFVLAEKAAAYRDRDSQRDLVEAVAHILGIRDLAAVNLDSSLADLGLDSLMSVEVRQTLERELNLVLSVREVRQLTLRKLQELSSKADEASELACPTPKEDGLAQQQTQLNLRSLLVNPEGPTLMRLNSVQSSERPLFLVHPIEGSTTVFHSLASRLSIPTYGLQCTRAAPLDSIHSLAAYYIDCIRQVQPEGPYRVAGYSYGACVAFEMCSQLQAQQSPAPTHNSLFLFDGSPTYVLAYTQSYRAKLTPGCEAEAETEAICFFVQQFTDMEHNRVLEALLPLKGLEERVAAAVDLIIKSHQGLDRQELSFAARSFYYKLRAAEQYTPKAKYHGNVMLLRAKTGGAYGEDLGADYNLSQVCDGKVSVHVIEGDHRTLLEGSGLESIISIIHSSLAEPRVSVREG

B1: Treacle protein (protein, UniProt Q13428 1-1488)
chain: MAEARKRRELLPLIYHHLLRAGYVRAAREVKEQSGQKCFLAQPVTLLDIYTHWQQTSELGRKRKAEEDAALQAKKTRVSDPISTSESSEEEEEAEAETAKATPRLASTNSSVLGADLPSSMKEKAKAETEKAGKTGNSMPHPATGKTVANLLSGKSPRKSAEPSANTTLVSETEEEGSVPAFGAAAKPGMVSAGQADSSSEDTSSSSDETDVEGKPSVKPAQVKASSVSTKESPARKAAPAPGKVGDVTPQVKGGALPPAKRAKKPEEESESSEEGSESEEEAPAGTRSQVKASEKILQVRAASAPAKGTPGKGATPAPPGKAGAVASQTKAGKPEEDSESSSEESSDSEEETPAAKALLQAKASGKTSQVGAASAPAKESPRKGAAPAPPGKTGPAVAKAQAGKREEDSQSSSEESDSEEEAPAQAKPSGKAPQVRAASAPAKESPRKGAAPAPPRKTGPAAAQVQVGKQEEDSRSSSEESDSDREALAAMNAAQVKPLGKSPQVKPASTMGMGPLGKGAGPVPPGKVGPATPSAQVGKWEEDSESSSEESSDSSDGEVPTAVAPAQEKSLGNILQAKPTSSPAKGPPQKAGPVAVQVKAEKPMDNSESSEESSDSADSEEAPAAMTAAQAKPALKIPQTKACPKKTNTTASAKVAPVRVGTQAPRKAGTATSPAGSSPAVAGGTQRPAEDSSSSEESDSEEEKTGLAVTVGQAKSVGKGLQVKAASVPVKGSLGQGTAPVLPGKTGPTVTQVKAEKQEDSESSEEESDSEEAAASPAQVKTSVKKTQAKANPAAARAPSAKGTISAPGKVVTAAAQAKQRSPSKVKPPVRNPQNSTVLARGPASVPSVGKAVATAAQAQTGPEEDSGSSEEESDSEEEAETLAQVKPSGKTHQIRAALAPAKESPRKGAAPTPPGKTGPSAAQAGKQDDSGSSSEESDSDGEAPAAVTSAQVIKPPLIFVDPNRSPAGPAATPAQAQAASTPRKARASESTARSSSSESEDEDVIPATQCLTPGIRTNVVTMPTAHPRIAPKASMAGASSSKESSRISDGKKQEGPATQVSKKNPASLPLTQAALKVLAQKASEAQPPVARTQPSSGVDSAVGTLPATSPQSTSVQAKGTNKLRKPKLPEVQQATKAPESSDDSEDSSDSSSGSEEDGEGPQGAKSAHTLGPTPSRTETLVEETAAESSEDDVVAPSQSLLSGYMTPGLTPANSQASKATPKLDSSPSVSSTLAAKDDPDGKQEAKPQQAAGMLSPKTGGKEAASGTTPQKSRKPKKGAGNPQASTLALQSNITQCLLGQPWPLNEAQVQASVVKVLTELLEQERKKVVDTTKESSRKGWESRKRKLSGDQPAARTPRSKKKKKLGAGEGGEASVSPEKTSTTSKGKAKRDKASGDVKEKKGKGSLGSQGAKDEPEEELQKGMGTVEGGDQSNPKSKKEKKKSDKRKKDKEKKEKKKKAKKASTKDSESPSQKKKKKKKKTAEQTV
B2: Signal-induced proliferation-associated protein 1 (protein, UniProt Q96FS4 1-1042)
chain: MPMWAGGVGSPRRGMAPASTDDLFARKLRQPARPPLTPHTFEPRPVRGPLLRSGSDAGEARPPTPASPRARAHSHEEASRPAATSTRLFTDPLALLGLPAEEPEPAFPPVLEPRWFAHYDVQSLLFDWAPRSQGMGSHSEASSGTLASAEDQAASSDLLHGAPGFVCELGGEGELGLGGPASPPVPPALPNAAVSILEEPQNRTSAYSLEHADLGAGYYRKYFYGKEHQNFFGMDESLGPVAVSLRREEKEGSGGGTLHSYRVIVRTTQLRTLRGTISEDALPPGPPRGLSPRKLLEHVAPQLSPSCLRLGSASPKVPRTLLTLDEQVLSFQRKVGILYCRAGQGSEEEMYNNQEAGPAFMQFLTLLGDVVRLKGFESYRAQLDTKTDSTGTHSLYTTYQDHEIMFHVSTMLPYTPNNQQQLLRKRHIGNDIVTIVFQEPGSKPFCPTTIRSHFQHVFLVVRAHTPCTPHTTYRVAVSRTQDTPAFGPALPAGGGPFAANADFRAFLLAKALNGEQAAGHARQFHAMATRTRQQYLQDLATNEVTTTSLDSASRFGLPSLGGRRRAAPRGPGAELQAAGSLVWGVRAAPGARVAAGAQASGPEGIEVPCLLGISAEALVLVAPRDGRVVFNCACRDVLAWTFSEQQLDLYHGRGEAITLRFDGSPGQAVGEVVARLQLVSRGCETRELALPRDGQGRLGFEVDAEGFVTHVERFTFAETAGLRPGARLLRVCGQTLPSLRPEAAAQLLRSAPKVCVTVLPPDESGRPRRSFSELYTLSLQEPSRRGAPDPVQDEVQGVTLLPTTKQLLHLCLQDGGSPPGPGDLAEERTEFLHSQNSLSPRSSLSDEAPVLPNTTPDLLLATTAKPSVPSADSETPLTQDRPGSPSGSEDKGNPAPELRASFLPRTLSLRNSISRIMSEAGSGTLEDEWQAISEIASTCNTILESLSREGQPIPESGDPKGTPKSDAEPEPGNLSEKVSHLESMLRKLQEDLQKEKADRAALEEEVRSLRHNNRRLQAESESAATRLLLASKQLGSPTADLA
B3: Phostensin (protein, UniProt Q6NYC8 1-613)
chain: MATIPDWKLQLLARRRQEEASVRGREKAERERLSQMPAWKRGLLERRRAKLGLSPGEPSPVLGTVEAGPPDPDESAVLLEAIGPVHQNRFIRQERQQQQQQQQRSEELLAERKPGPLEARERRPSPGEMRDQSPKGRESREERLSPRETRERRLGIGGAQELSLRPLEARDWRQSPGEVGDRSSRLSEAWKWRLSPGETPERSLRLAESREQSPRRKEVESRLSPGESAYQKLGLTEAHKWRPDSRESQEQSLVQLEATEWRLRSGEERQDYSEECGRKEEWPVPGVAPKETAELSETLTREAQGNSSAGVEAAEQRPVEDGERGMKPTEGWKWTLNSGKAREWTPRDIEAQTQKPEPPESAEKLLESPGVEAGEGEAEKEEAGAQGRPLRALQNCCSVPSPLPPEDAGTGGLRQQEEEAVELQPPPPAPLSPPPPAPTAPQPPGDPLMSRLFYGVKAGPGVGAPRRSGHTFTVNPRRSVPPATPATPTSPATVDAAVPGAGKKRYPTAEEILVLGGYLRLSRSCLAKGSPERHHKQLKISFSETALETTYQYPSESSVLEELGPEPEVPSAPNPPAAQPDDEEDEEELLLLQPELQGGLRTKALIVDESCRR
B4: EF-hand domain-containing protein D2 (protein, UniProt Q96C19 1-240)
chain: MATDELATKLSRRLQMEGEGGGETPEQPGLNGAAAAAAGAPDEAAEALGSADCELSAKLLRRADLNQGIGEPQSPSRRVFNPYTEFKEFSRKQIKDMEKMFKQYDAGRDGFIDLMELKLMMEKLGAPQTHLGLKNMIKEVDEDFDSKLSFREFLLIFRKAAAGELQEDSGLCVLARLSEIDVSSEGVKGAKSFFEAKVQAINVSSRFEEEIKAEQEERKKQAEEMKQRKAAFKELQSTFK
B5: Mitotic interactor and substrate of PLK1 (protein, UniProt Q8IVT2 1-679)
chain: MDRVTRYPILGIPQAHRGTGLVLDGDTSYTYHLVCMGPEASGWGQDEPQTWPTDHRAQQGVQRQGVSYSVHAYTGQPSPRGLHSENREDEGWQVYRLGARDAHQGRPTWALRPEDGEDKEMKTYRLDAGDADPRRLCDLERERWAVIQGQAVRKSSTVATLQGTPDHGDPRTPGPPRSTPLEENVVDREQIDFLAARQQFLSLEQANKGAPHSSPARGTPAGTTPGASQAPKAFNKPHLANGHVVPIKPQVKGVVREENKVRAVPTWASVQVVDDPGSLASVESPGTPKETPIEREIRLAQEREADLREQRGLRQATDHQELVEIPTRPLLTKLSLITAPRRERGRPSLYVQRDIVQETQREEDHRREGLHVGRASTPDWVSEGPQPGLRRALSSDSILSPAPDARAADPAPEVRKVNRIPPDAYQPYLSPGTPQLEFSAFGAFGKPSSLSTAEAKAATSPKATMSPRHLSESSGKPLSTKQEASKPPRGCPQANRGVVRWEYFRLRPLRFRAPDEPQQAQVPHVWGWEVAGAPALRLQKSQSSDLLERERESVLRREQEVAEERRNALFPEVFSPTPDENSDQNSRSSSQASGITGSYSVSESPFFSPIHLHSNVAWTVEDPVDSAPPGQRKKEQWYAGINPSDGINSEVLEAIRVTRHKNAMAERWESRIYASEEDD
B6: Protein phosphatase 1 regulatory subunit 12B (protein, UniProt O60237 1-982)
chain: MAELEHLGGKRAESARMRRAEQLRRWRGSLTEQEPAERRGAGRQPLTRRGSPRVRFEDGAVFLAACSSGDTDEVRKLLARGADINTVNVDGLTALHQACIDENLDMVKFLVENRANVNQQDNEGWTPLHAAASCGYLNIAEYFINHGASVGIVNSEGEVPSDLAEEPAMKDLLLEQVKKQGVDLEQSRKEEEQQMLQDARQWLNSGKIEDVRQARSGATALHVAAAKGYSEVLRLLIQAGYELNVQDYDGWTPLHAAAHWGVKEACSILAEALCDMDIRNKLGQTPFDVADEGLVEHLELLQKKQNVLRSEKETRNKLIESDLNSKIQSGFFKNKEKMLYEEETPKSQEMEEENKESSSSSSEEEEGEDEASESETEKEADKKPEAFVNHSNSESKSSITEQIPAPAQNTFSASSARRFSSGLFNKPEEPKDESPSSWRLGLRKTGSHNMLSEVANSREPIRDRGSSIYRSSSSPRISALLDNKDKERENKSYISSLAPRKLNSTSDIEEKENRESAVNLVRSGSYTRQLWRDEAKGNEIPQTIAPSTYVSTYLKRTPHKSQADTTAEKTADNVSSSTPLCVITNRPLPSTANGVTATPVLSITGTDSSVEAREKRRSYLTPVRDEEAESLRKARSRQARQTRRSTQGVTLTDLQEAERTFSRSRAERQAQEQPREKPTDTEGLEGSPEKHEPSAVPATEAGEGQQPWGRSLDEEPICHRLRCPAQPDKPTTPASPSTSRPSLYTSSHLLWTNRFSVPDSESSETTTNTTTAKEMDKNENEEADLDEQSSKRLSIRERRRPKERRRGTGINFWTKDEDETDGSEEVKETWHERLSRLESGGSNPTTSDSYGDRASARARREAREARLATLTSRVEEDSNRDYKKLYESALTENQKLKTKLQEAQLELADIKSKLEKVAQQKQEKTSDRSSVLEMEKRERRALERKMSEMEEEMKVLTELKSDNQRLKDENGALIRVISKLSK
B7: Actin filament-associated protein 1 (protein, UniProt Q8N556 1-730)
chain: MEELIVELRLFLELLDHEYLTSTVREKKAVITNILLRIQSSKGFDVKDHAQKQETANSLPAPPQMPLPEIPQPWLPPDSGPPPLPTSSLPEGYYEEAVPLSPGKAPEYITSNYDSDAMSSSYESYDEEEEDGKGKKTRHQWPSEEASMDLVKDAKICAFLLRKKRFGQWTKLLCVIKDTKLLCYKSSKDQQPQMELPLQGCNITYIPKDSKKKKHELKITQQGTDPLVLAVQSKEQAEQWLKVIKEAYSGCSGPVDSECPPPPSSPVHKAELEKKLSSERPSSDGEGVVENGITTCNGKEQVKRKKSSKSEAKGTVSKVTGKKITKIISLGKKKPSTDEQTSSAEEDVPTCGYLNVLSNSRWRERWCRVKDNKLIFHKDRTDLKTHIVSIPLRGCEVIPGLDSKHPLTFRLLRNGQEVAVLEASSSEDMGRWIGILLAETGSSTDPEALHYDYIDVEMSASVIQTAKQTFCFMNRRVISANPYLGGTSNGYAHPSGTALHYDDVPCINGSLKGKKPPVASNGVTGKGKTLSSQPKKADPAAVVKRTGSNAAQYKYGKNRVEADAKRLQTKEEELLKRKEALRNRLAQLRKERKDLRAAIEVNAGRKPQAILEEKLKQLEEECRQKEAERVSLELELTEVKESLKKALAGGVTLGLAIEPKSGTSSPQSPVFRHRTLENSPISSCDTSDTEGPVPVNSAAVLKKSQAAPGSSPCRGHVLRKAKEWELKNGT

target: Fatty acid synthase (human (endogenous in HepG2 and SMMC7721)) (UniProt P49327); test: affinity purification with mass spectrometry; FASN antibody and Protein A/G agarose beads on whole cell lysates of HepG2 cells transfected with control siRNA or FASN siRNA; eluted proteins iTRAQ-labelled (114, 117 against 118, 121), Nano LC ESI MS/MS

B1 was tested. Which binding did it give?
Its binding is “binds”.

With B2 as the binder, how does the binding read?
The binding was “binds”.

With B3 as the binder, how does the binding read?
The binding was “binds”.

B4 was tested. Which binding did it give?
The binding was “binds”.

How did the binding turn out when B5 was run?
Its binding is “binds”.

How did the binding turn out when B6 was run?
Its binding is “binds”.

Which binding does the source give for B7 here?
The binding was “binds”.
